# Library screen at single concentrations

Data taken from ChEMBL document CHEMBL3988442, “University of Dundee, Small-Polar-MMV Screening Library” (2021).

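Assay of Toxoplasma gondii numbers, read through their beta-galactosidase reporter with a colour substrate. Tested at 50 µM. The record gives no direction; the compounds picked for IC50 retests had high values, so higher reads as fewer parasites. Of about 18,000 compounds tested this way, about 170 (0.94%) reached 50% or more in at least one test.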

Results are given as percent effect. The record does not define 0% and 100%; most values in the screen are far below 50% and negative numbers occur (in some assays of this library far below -100). The compounds are a random part of those screened.

With CNC(=O)C1CCN(Cc2cccc(C)c2)CC1 the screen gave 19.96%. For Cc1cc(-n2cccc2)ccc1C(=O)N(C)C the result was -14.01%. Cc1ccc(C(N)c2ccccn2)cc1 (centres undefined) read 1.701%. With Cn1c(SCCCO)nnc1-c1ccccc1F the screen gave 0.6361%. With Cc1cc(N2CCOC(CCN)C2)n2nccc2n1 (centres undefined) the screen gave -2.878%. With O=C(c1ccc(Br)cn1)N1CCN(CCO)CC1 the screen gave -7.16%.

For Cc1ccc2oc(N3CCNCC3)nc2c1 the result was 7.702%. With CS(=O)(=O)NCC(CO)Cc1c(F)cccc1Cl (centres undefined) the screen gave -6.392%. Result for Cc1ccc(C(=O)NCCSc2nccn2C)c(=O)[nH]1 was -7.92%. For CC(N)c1nccc(N)n1 (centres undefined) the result was -10.32%. CS(=O)(=O)NC(c1ccc(F)cc1)c1cccnc1 (centres undefined) gave -4.116%. Result for CC(C)c1cc(C(=O)N[C@@H]2CCOC[C@H]2O)no1 was 0.3128%.

CCOCCSc1nnnn1CC1CCCO1 (centres undefined) gave 4.057%. Result for CC(C)(C)N1CCC(NCc2ccccn2)CC1 was -13.08%. With CC(C)[C@H]1CN(S(=O)(=O)c2ccccc2F)C[C@@H]1N the screen gave 1.564%. COCCOCC1CCN(Cc2ccc(C#N)cc2)C1 (centres undefined) gave 26.2%. With CCN1CCN(CCNC(=O)c2ccc(Cl)cc2)CC1 the screen gave -5.62%. With CN(Cc1cccnc1)CC1CCCNC1 (centres undefined) the screen gave 8.878%.

c1cn(C2CCCNC2)nn1 (centres undefined) read -2.38%. CCNC(=O)CNc1ccc2c(Cl)ccnc2c1F read -3.732%. CNC(=O)C1CCN(C(=O)NCc2ccccn2)CC1 gave -10.77%. Result for O=C(CCn1cncn1)NCC1(c2ccccc2)CC1 was -3.239%. Result for Cc1cc(F)cc(S(=O)(=O)NCCN)c1 was -4.306%. For CCCn1nccc1C(=O)N1CCOC[C@@H]1CC the result was 1.522%.

N#Cc1ccc(CN2CCC3(CCC3O)CC2)cc1 (centres undefined) read -6.329%. Result for CN(Cc1nnc[nH]1)C(=O)CCSc1ccccc1Cl was -8.994%. For CC(C)(C)C1=CCN(CCN)CC1 the result was 28.97%. O=C(CCc1ccc2[nH]ccc2c1)N1CCOCC1 gave 15.29%. NCc1cn2c(n1)CCCC2 read -3.746%. For COc1ccccc1N(C)C(=O)Cn1cnnn1 the result was -3.952%.

For Cc1ccnc(NC(=O)C2SCCS2)n1 the result was -6.766%. Result for COCC(=O)Nc1cc(OC)c(Br)cn1 was -8.679%. COc1ccc(CC(=O)NCC(C)C)c(OC)c1 gave -4.782%. O=C(NCCNCc1cccnc1)c1ccco1 gave 10.72%. For COC1CCN(S(=O)(=O)N2C[C@H](C3CC3)[C@@H](N)C2)CC1 the result was 13.51%. COCCCC1CCCN(C(=O)c2n[nH]c(N)c2Cl)C1 (centres undefined) read 9.098%.

For COCCNC(=O)COC(=O)c1ccc2ncsc2c1 the result was -11.22%. CN(C)C(=O)c1csc(N2CCCCC2)n1 read -6.511%. CC(c1cccnc1)N(C)C(=O)c1cncc(F)c1 (centres undefined) read 4.795%. c1cncc(CN2CCCOC(CN3CCCC3)C2)c1 (centres undefined) read 2.099%. For C/N=C1/NCC2CN(C(=O)OC(C)(C)C)CCN12 (centres undefined) the result was -7.517%. With FC(F)Oc1ccc(C2CNCCO2)cc1 (centres undefined) the screen gave 37.02%.

For reference, 3 entries once more:

{"structure": "COc1ccc(CC(=O)NCC(C)C)c(OC)c1", "percent effect": -4.782}
{"structure": "CC(C)[C@H]1CN(S(=O)(=O)c2ccccc2F)C[C@@H]1N", "percent effect": 1.564}
{"structure": "FC(F)Oc1ccc(C2CNCCO2)cc1", "stereo": "centres undefined", "percent effect": 37.02}